Source: PubChem BioAssay AID1794845 (National Center for Advancing Translational Sciences (NCATS), 2023)
The campaign covered roughly 6,900 compounds. Fewer than 10 were called active. Calls come from the whole dose curve; as a rule, active = well fitted curve in the direction sought with a large enough effect; inconclusive = small, poorly fitted or top-dose-only effect, or another doubt; inactive = no such curve, though single readings can be large or run the other way. The list shows a part of the results.

Protein sequences, listed by entry. Tags and fused reporters are not part of them. Lines headed by an entry give the natural chain unless they say otherwise; changes in a name come on top.
UniProt C7C422: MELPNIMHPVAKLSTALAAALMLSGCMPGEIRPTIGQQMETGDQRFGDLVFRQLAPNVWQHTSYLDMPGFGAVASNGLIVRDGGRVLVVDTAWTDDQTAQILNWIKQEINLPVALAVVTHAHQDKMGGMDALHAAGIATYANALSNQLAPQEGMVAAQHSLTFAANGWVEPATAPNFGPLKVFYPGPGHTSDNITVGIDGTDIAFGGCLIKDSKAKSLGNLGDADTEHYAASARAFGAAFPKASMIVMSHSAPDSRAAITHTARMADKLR

Molecular target: Metallo-beta-lactamase type 2 (Klebsiella pneumoniae) (UniProt C7C422)
Assay: qHTS to identify inhibitors of the New Delhi Metallo-beta-lactamase (NDM): primary screen against the NCATS Gemini Collection; note: % of control where 0% means no effect
Details: NDM-1 enzyme, meropenem hydrolysis, absorbance 300 nm; at 38.4 µM (top of the series) unless noted
Outline: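 Meropenem hydrolysis (50 uM final) by 2 nM NDM-1 read as 300 nm absorbance after 30 min, following >30 min compound–enzyme preincubation in HEPES pH 7.0 with 1 uM ZnSO4 and 0.01% Tween20.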

Activity % (negative = inhibition), inactive:
O=[S+]1([O-])NC2(CCN(Cc3ccc(F)cc3)CC2)CNc2ccccc21 4.06%, CS(=O)(=O)NCCc1ccc(CC2CCN(C(=O)c3cnccn3)CC2)cc1 5.8%, O=C1Nc2ccccc2CC12CCN2Cc1ccc(OC(F)(F)F)cc1 (stereo not given) 0.918%, O=C(O)c1ccc(CN2CCC[C@H]2c2nc(-c3ccc(OC4CCCCC4)nc3)no2)cc1 -3.98%, Cc1ccc2c(n1)N(C)[C@H](CO)CCN(Cc1cccc(Cl)c1)C2 -8.47% [at 57.5 µM], Cc1noc(CN2C[C@H](NC(=O)CNS(C)(=O)=O)[C@@H](C3CC3)C2)n1 2.74%, Cn1cc(CN2C[C@H](C(=O)Nc3nccs3)C[C@@H]2c2cccc(C(F)(F)F)c2)cn1 4.37% [at 57.5 µM], COc1ccc(CNC(=O)C2=NO[C@@H]3CN(c4ccccn4)C[C@H]23)cc1OC 6.16% [at 57.5 µM], CN1CC(O)CN([S+](=O)([O-])c2cccs2)CC1=O (stereo not given) -1.72%, c1ccc(CN2CCc3c(sc4ncnc(N5CCOCC5)c34)C2)cc1 3.98%, Cn1ccnc1-c1cn(Cc2ccccc2Cn2cccn2)nn1 0.586%, COc1ncccc1Nc1cnc2ccc(N3CCOCC3)nn12 11.8% [at 57.5 µM], OC[C@@H]1CN(Cc2ccco2)C[C@H]1c1ccccn1 3.82%, O=C(NC1CCCC1)C1c2ccccc2CC(=O)N1Cc1ccccc1 (stereo not given) 3.08%, COc1ccccc1CNC(=O)C1CN(C(C)C)C(=O)N1 (stereo not given) -5.03% [at 57.5 µM], COc1ccc(C2(C(=O)N3CCCCCC3c3nc(-c4cccnc4)no3)CC2)cc1 (stereo not given) -1.26%, COc1ccccc1-c1cccc(C(=O)N2CCN(C(=O)c3ccc(F)cc3)CC2)c1 0.844%, CC(C)NC(=O)C1CCc2nnc(C(C)(C)C)n21 (stereo not given) -0.813% [at 57.5 µM], Cc1nc(C(=O)N2CC(F)(F)C[C@H]2c2nnc(C3CC3)o2)co1 52.8%, CN1CC2(CCN(Cc3ccc(C#N)cc3)CC2)CC(c2ccccc2)C1=O (stereo not given) 21.5%, CCn1nc(-c2cccc(-c3ccnn3C)c2)nc1N(C)C -0.0094%, Cc1nc(C)c(C(=O)N2CCCCCCNC(=O)CC2)s1 15.3%, CC(C)S(=O)(=O)c1ncc(CN(C)Cc2cnn(C)c2)n1CCc1ccccc1 -4.1%, O=C(CC1CCCC1)N1CCC(c2noc(-c3cnccn3)n2)C1 (stereo not given) -2.76%, CN(Cc1ccc(N2CCNC2=O)cc1)CC1CCCN(CCc2ccc(F)cc2)C1 (stereo not given) 3.74%, CNC(=O)c1cc(C2CC2)nc2c1c(C1CCN(C(=O)C3CCCC3)C1)nn2C (stereo not given) 20.8%, O=C(CCc1nnn2c1CN(C(=O)NCCc1ccccc1)CC2)NC1CC1 8.39%, CN1c2cc(C(N)=O)ccc2C(=O)N2CCCC21 (stereo not given) -0.849%, C[C@@H]1CN(C(=O)c2cnc3sccn3c2=O)C[C@@]1(O)C1CCC1 -0.99%, CN1CCCCCCN(C(=O)Cn2c(=O)oc3ccccc32)[C@H]2CCC[C@H]2C1=O 6.66%, CCC[C@H]1CN(Cc2c(C)noc2C)C[C@@H]1NC(=O)C1CCOCC1 -1.77%, COC(=O)CNC(=O)c1nc(-c2ccccc2OC)c2cnccn12 24.9%, Cc1ccc(CN2CCC3(CC2)CC(c2ccccc2)C(=O)N3C)cc1F (stereo not given) 11.9%, N#Cc1ccc(CN2CCCC3(CC(c4cccnc4)=NO3)C2)cc1 (stereo not given) 10.9%, Cc1nn(C)cc1CN1CCC(O)(c2ccccc2)[C@H](N2CCCC2)C1 (stereo not given in full) 0.544%, CCN1C(=O)Cc2cc(C(=O)NCCC(C)C)ccc21 27.3%, CC(C)CCNC(=O)N1CC[C@@H]2COC(=O)N(Cc3ccccc3)[C@@H]2C1 6.1%, CNC(=O)c1cc(C2CC2)nc2onc(C3CCCN3C(C)=O)c12 (stereo not given) 24.9% [at 57.5 µM], Cc1nc(N2CCC(NC(=O)COc3ccccc3)CC2)cc(C(F)(F)F)n1 13.9%, Cc1oc2c(c1C(=O)N1CCOCC1)CN(C(=O)c1ccncc1)CC2 54.7%, COc1cccc(C(=O)N2CCC(Oc3ccccc3-c3nc(C4CCOCC4)no3)C2)c1 (stereo not given) 2.84%, NCC(=O)N[C@H]1CN(c2nccc(C(F)(F)F)n2)C[C@@H]1C1CC1 -0.191%, CCCc1nc(CN(CC)C(=O)c2ccc(NC(=O)C3CCC3)cc2)no1 11.1%, Cc1cnn(C(C)c2nc(-c3ccc(C)nn3)no2)c1 (stereo not given) -1.03%, COc1ccc2c(c1)C(C(=O)Nc1ccc(C)c([S+](=O)([O-])N3CCOCC3)c1)=CC(C)(C)CO2 1.94%, CC1=C[C@@H](CN(CC2CC2)CC2CC2)[C@H](C(C)C)C[C@H]1Cc1nc2ccncc2[nH]1 22.3% [at 57.5 µM], CC(=O)N1CCN(CC[C@H]2CN(C(=O)c3ccc(N(C)C)cc3)CC[C@H]2CC(=O)O)CC1 16.2%, COc1ccc(C(=O)N2CCC(c3noc(-c4ccncc4)n3)C2)cn1 (stereo not given) 6.51%, CC(=O)N1CCC(C(=O)N[C@H]2CCN3C(=O)N(c4ccc(OC(F)(F)F)cc4)C(=O)[C@@H]3C2)CC1 -9.06%, CC(=O)N1CCCC(c2nn(-c3cccc(Cl)c3)c(=O)[nH]2)C1 (stereo not given) 14.7% [at 57.5 µM], CC(C)OCCCNC(=O)C1CCCN(S(=O)(=O)c2cn(C)cn2)CCC(=O)NCC1 (stereo not given) -8.72%, Cc1n[nH]c(C)c1CNC(=O)C12CCCC=C1N(Cc1ccccc1)C(=O)CC2 (stereo not given) 5.12%, O=C(NCc1ccccc1)C1CCCN1c1nccc(Nc2ccccc2F)n1 (stereo not given) 35%, CC(C)c1noc([C@@H]2C[C@@H](O)CN2Cc2cc3ccccc3o2)n1 12.8% [at 57.5 µM], O=C(NCCn1ccnc1-c1cc2n(n1)CCCNC2)c1ccncc1 23.6%, COCCn1c(C)cnc1CC1CCN(C(=O)c2c[nH]c3ccccc23)CC1 39%, CCOc1cc(=O)n2c(c1C(=O)Nc1cccc(C)c1)CCCC2 41.2%, CNC(=O)[C@@H](Cc1ccccc1)N1CCC[C@H]1C(=O)NCC1CC1 11.1% [at 57.5 µM], C=CCNC(=O)N[C@H]1C[C@@H](C(=O)N[C@@H](CCS(C)(=O)=O)C(N)=O)N(C(=O)CSC)C1 -0.301%, COCCN1C[C@@H]2[C@H](c3ccccc31)[C@@H](CO)[C@@H](c1ccccc1)N2C(=O)COC(C)=O 4.01%, CN1CC2(CCN(C(=O)CCc3nc(-c4ccco4)no3)C2)OC1=O (stereo not given) 7.83%, CCCS(=O)(=O)N1CCc2nnc(C3CC3)n2CC1 7.88%, COCCN1CC2CN(C(=O)CCCc3ccccc3)CC(C1)O2 -0.476%, O=C1Cc2c(-c3ccccc3OCc3ccccc3)n[nH]c2CN1CC1CCOCC1 -7.73% [at 57.5 µM], Cc1nn(C)c(C)c1S(=O)(=O)N1CCC2(CCC(=O)N(Cc3ccccc3)CC2)CC1 -1.31%, O=C(Nc1cccc(F)c1)[C@@H]1C[C@@H](c2cccc(C(F)(F)F)c2)N(CC2CCOCC2)C1 -1.03%, CC(=O)N1CCn2c(nnc2C2CCCN2Cc2ccc(F)cc2F)C1 (stereo not given) -1.98%, CCn1ncnc1C(C)NC1CCC2(CCNCC2)CC1 (stereo not given) 9.84%, Cc1cn2nc(C(=O)NC3CCCCCC3)cc2c(N2CCSCC2)n1 1.22%, COCc1cc(CNC(=O)CC(c2ccccc2)c2ccccc2Cl)[nH]n1 (stereo not given) -5.39%, O=C1NCCCCCN(C(=O)C2CCCCC2)[C@H]2CCCC[C@@H]12 -1.31%, O=C1NCCOCCN(C(=O)Cc2cccc(F)c2)[C@H]2CCC[C@@H]12 -0.244%, Cc1cnc(-c2ccccc2)n1C1CCCN(S(=O)(=O)c2ccccc2)C1 (stereo not given) 4.9%, Cc1cnccc1CN(C)Cc1cc2n(n1)CCNC2 2.08%, CCC1(C(=O)NC2CCCCC2)CCCCC(=O)N1 (stereo not given) 0.446%, O=C(c1cccc(OC2CN(C3CCCC3)C2)c1)N1CCCC1 4.99%, C/C=C/CN1C[C@@H](NC(=O)c2cccc(N(C)C)c2)C[C@H]1C(=O)NCC -0.496%, COC1=C(C(=O)OCc2ccccc2)N(c2c(C)cccc2C)[S+](=O)([O-])c2ccccc21 5.27%, CN1CCCC2(CCN(S(=O)(=O)c3ccc4[nH]c(=O)[nH]c4c3)C2)C1=O (stereo not given) 1.81%, O=C([C@@H]1C[C@H](Oc2ccccc2)CN1C(=O)C1CC1)N1CCCC1 1.16%, CCCNC(=O)N1CCC(Cc2ccc(CCNC(C)=O)cc2)CC1 1.09%, CC(C)CCN1CC2(CCCN(S(=O)(=O)N3CCOCC3)C2)CCC1=O (stereo not given) 1.08%, CC(=O)N[C@H](CC(C)C)c1nc(-c2ccc(C)nn2)no1 4.16%, CN(Cc1ccccc1)Cc1cc(CC2(NC3CCCCC3)COC2)no1 7.49% [at 57.5 µM], O=C1NC(=NC2CCCC2)C2(CCN([S+](=O)([O-])c3cccc(C(F)(F)F)c3)C2)N1c1cccnc1 (stereo not given) -0.274%
